At least one structure is not confirmed: it was looked up by name or label, or the drawing left a doubt. Some entries share one result that the patent states for a list of compounds.
Columns and labels:
[1] = system: E. coli DH5α-E containing multiply mutated ampC; assay: MIC of population of E. coli host cells containing multiply mutated (DNA-shuffled) ampC; type: cell-based; details: for MIC relative to that of pAmpC0: population of E. coli cells of Example 5 vs pAmpC0
Description: E. coli host cells prepared according to Example 4 were diluted into 100 ml MuellerHinton-IPTG (MH-T) broth. Duplicate samples of 10^0, 10^1, and 10^2 dilutions were spread onto L(tet) plates to estimate total transformants, and duplicate 10^0 and 10^1 samples were spread onto MH-I(ampicillin) plates to estimate the number of Amp^R transformants. 10 mg ampicillin was added to each culture using 1 ml of a 10 mg/ml ampicillin solution. The culture was allowed to stand overnight at 37° C. without shaking.
Next, the minimum inhibitory concentration of a number of drug was determined. An estimate of viable cells was calculated by assuming that an A600 of 1.0 is equivalent to 1.9×10^8 per ml for DH5α-E cells. A sample of the overnight culture was diluted into 70 ml of MH-I so that the number of cells per ml 10^5 per ml. The resulting suspension was used to determine MIC in 48-well microtiter plates.
Serial dilutions were prepared by first determining the volume of drug solution to be added to the first well in each row to achieve the desired concentration of drug in a total volume of 1 ml. The MIC was determined for the following drugs: ampicillin, pipericillin, temocillin, cephalothin, cefuroxime, cefotaxime, ceftazidime, cefepime, imipenem, meropenem, and aztreonam. To the first well in each row 1 ml of the diluted cell suspension was added, and to all remaining wells per row 0.5 ml of the diluted cell suspension was added. For each row, the predetermined volume of a drug solution was added to the first well per row, mixed well, and then 0.5 ml of the mixed solution was transferred to the next well, and so on until the serial dilutions were completed. From the last well in each row, 0.5 ml was removed so that all well contained 0.5 ml of the drug-containing culture. Plates were sealed with BreatheEasy film (Diversified Biotech, Boston, Mass.) and maintained overnight at 37° C. with shaking. […] The MICs, in μg/ml, for each of the above-identified drugs was as follows: ampicillin, >1024; pipericillin, >1024; temocillin, 32: cephalothin, 1024; cefuroxime, 512; cefotaxime, 8; ceftazidime, 64; cefepime, 1; imipenem, 0.25; meropenem, 0.03125; and aztreonam, 16.

[2] = system: E. coli JM109 carrying pAmpC0 (wildtype E. coli K12 ampC gene); assay: MIC test, plasmid pAmpC0 (wildtype ampC gene); type: cell-based; details: Table 1 boxed cells
Description: Basically, a MIC determination is carried out by preparing serial dilutions of drugs in a micro-well plate and measuring host cell growth within those wells. The MIC for a particular set of host cells containing a mutant resistance gene is determined by examining the wells to locate the lowest concentration of drug which inhibited cell growth. This is capable of discriminating generally between those host cells containing mutant resistance genes conferring different degrees of resistance against the particular drug.
All experiments utilizing ampicillin resistance will be directed toward the cloned and regulated ampC gene (or mutant ampC gene) in such a way that the regulation, i.e., the amount of enzyme produced per cell, will be held constant throughout the experiments and all of the “improvement” in resistance will come from improvement in β-lactamase activity.
Serial dilutions were prepared by first determining the volume of drug solution to be added to the first well in each row to achieve the desired concentration of drug in a total volume of 1 ml. The MIC was determined for the following drugs: ampicillin, pipericillin, temocillin, cephalothin, cefuroxime, cefotaxime, ceftazidime, cefepime, imipenem, meropenem, and aztreonam. […]

SMILES | MIC relative to that of pAmpC0 [1] | resistance conferred by plasmid pAmpC0 [2] | MIC ([1]; lowest drug concentration that completely inhibited growth, overnight at 37° C., MH-I broth, 48-well plates, shuffled ampC library in DH5α-E) [µg/mL]
CC1(C)S[C@@H]2[C@H](NC(=O)[C@H](N)c3ccccc3)C(=O)N2[C@H]1C(=O)O [Ampicillin, ampicillin] | at least 4 × |  | 
C[C@H]1[C@H](NC(=O)/C(=N\OC(C)(C)C(=O)O)c2csc(N)n2)C(=O)N1S(=O)(=O)O [Aztreonam, aztreonam] | at least 4 × |  | 
CO/N=C(\C(=O)N[C@@H]1C(=O)N2C(C(=O)[O-])=C(C[N+]3(C)CCCC3)CS[C@H]12)c1csc(N)n1 [Cefepime, cefepime] | at least 4 × |  | 
CO/N=C(\C(=O)N[C@@H]1C(=O)N2C(C(=O)O)=C(COC(C)=O)CS[C@H]12)c1csc(N)n1 [Cefotaxime, cefotaxime] | at least 4 × |  | 
CC(C)(O/N=C(\C(=O)N[C@@H]1C(=O)N2C(C(=O)[O-])=C(C[n+]3ccccc3)CS[C@H]12)c1csc(N)n1)C(=O)O [Ceftazidime, ceftazidime] | at least 4 × |  | 
CO/N=C(\C(=O)N[C@@H]1C(=O)N2C(C(=O)O)=C(COC(N)=O)CS[C@H]12)c1ccco1 [Cefuroxime, cefuroxime] | at least 4 × |  | 
CC(=O)OCC1=C(C(=O)O)N2C(=O)[C@@H](NC(=O)Cc3cccs3)[C@H]2SC1 [Cephalothin, cephalothin] | at least 4 × |  | 
C[C@@H](O)[C@H]1C(=O)N2C(C(=O)O)=C(SCCN=CN)C[C@H]12 [Imipenem, imipenem] |  | not | 
CCN1CCN(C(=O)N[C@@H](C(=O)N[C@@H]2C(=O)N3[C@@H]2SC(C)(C)[C@@H]3C(=O)O)c2ccccc2)C(=O)C1=O [Pipericillin, pipericillin] | at least 4 × |  | > 1024

Source: US6720142B1, “Method of determining evolutionary potential of mutant resistance genes and use thereof to screen for drug efficacy” (priority 1999, dated 2004)
